Source: publication PMC4521966

T1: C-terminal FLAG-tagged mouse WDR72 (WD repeat-containing protein 72) (mouse) (UniProt D3YYM4)
T1 sequence: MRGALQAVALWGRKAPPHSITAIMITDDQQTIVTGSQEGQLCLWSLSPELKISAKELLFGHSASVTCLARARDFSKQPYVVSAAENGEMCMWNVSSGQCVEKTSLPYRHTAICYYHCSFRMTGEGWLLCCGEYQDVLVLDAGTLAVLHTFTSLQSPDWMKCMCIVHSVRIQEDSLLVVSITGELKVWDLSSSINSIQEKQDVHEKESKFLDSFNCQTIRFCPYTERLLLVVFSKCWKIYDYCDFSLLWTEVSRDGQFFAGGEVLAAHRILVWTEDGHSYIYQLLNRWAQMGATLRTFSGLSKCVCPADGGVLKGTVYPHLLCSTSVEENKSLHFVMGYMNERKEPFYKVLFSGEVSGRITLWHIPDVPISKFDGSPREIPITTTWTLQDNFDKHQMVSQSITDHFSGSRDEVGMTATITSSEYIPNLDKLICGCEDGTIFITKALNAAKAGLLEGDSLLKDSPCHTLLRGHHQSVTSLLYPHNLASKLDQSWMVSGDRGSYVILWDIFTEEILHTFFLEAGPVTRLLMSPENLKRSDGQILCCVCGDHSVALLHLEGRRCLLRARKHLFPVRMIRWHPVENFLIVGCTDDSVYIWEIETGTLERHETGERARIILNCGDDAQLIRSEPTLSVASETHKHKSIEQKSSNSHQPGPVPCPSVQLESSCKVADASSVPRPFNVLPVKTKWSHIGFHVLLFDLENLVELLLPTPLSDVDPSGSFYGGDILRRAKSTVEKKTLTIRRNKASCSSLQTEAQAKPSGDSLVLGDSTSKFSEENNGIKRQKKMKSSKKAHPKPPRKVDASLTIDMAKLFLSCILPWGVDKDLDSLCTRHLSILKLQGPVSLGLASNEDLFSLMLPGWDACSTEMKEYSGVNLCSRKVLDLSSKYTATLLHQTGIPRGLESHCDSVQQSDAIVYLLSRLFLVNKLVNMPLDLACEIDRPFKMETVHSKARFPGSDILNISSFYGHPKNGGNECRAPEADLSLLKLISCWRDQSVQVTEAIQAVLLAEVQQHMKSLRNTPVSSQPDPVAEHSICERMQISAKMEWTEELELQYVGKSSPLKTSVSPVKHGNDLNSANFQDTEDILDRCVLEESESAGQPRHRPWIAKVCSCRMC


Biological target: T1, C-terminal FLAG-tagged mouse WDR72 (WD repeat-containing protein 72) (mouse)
Assay: affinity purification with mass spectrometry; C-terminal FLAG-tagged mouse WDR72 overexpressed in HEK293; NP40 lysate; anti-FLAG antibody on protein A Dynabeads, 30 min at room temperature, washed twice; six CBB-stained bands cut from the SDS-PAGE gel, trypsin, LC-MS/MS

binding | Binder
binds | EDC4 (protein, UniProt Q6P2E9 1-1401) MASCASIDIEDATQHLRDILKLDRPAGGPSAESPRPSSAYNGDLNGLLVPDPLCSGDSTSANKTGLRTMPPINLQEKQVICLSGDDSSTCIGILAKEVEIVASSDSSISSKARGSNKVKIQPVAKYDWEQKYYYGNLIAVSNSFLAYAIRAANNGSAMVRVISVSTSERTLLKGFTGSVADLAFAHLNSPQLACLDEAGNLFVWRLALVNGKIQEEILVHIRQPEGTPLNHFRRIIWCPFIPEESEDCCEESSPTVALLHEDRAEVWDLDMLRSSHSTWPVDVSQIKQGFIVVKGHSTCLSEGALSPDGTVLATASHDGYVKFWQIYIEGQDEPRCLHEWKPHDGRPLSCLLFCDNHKKQDPDVPFWRFLITGADQNRELKMWCTVSWTCLQTIRFSPDIFSSVSVPPSLKVCLDLSAEYLILSDVQRKVLYVMELLQNQEEGHACFSSISEFLLTHPVLSFGIQVVSRCRLRHTEVLPAEEENDSLGADGTHGAGAMESAAGVLIKLFCVHTKALQDVQIRFQPQLNPDVVAPLPTHTAHEDFTFGESRPELGSEGLGSAAHGSQPDLRRIVELPAPADFLSLSSETKPKLMTPDAFMTPSASLQQITASPSSSSSGSSSSSSSSSSSLTAVSAMSSTSAVDPSLTRPPEELTLSPKLQLDGSLTMSSSGSLQASPRGLLPGLLPAPADKLTPKGPGQVPTATSALSLELQEVEPLGLPQASPSRTRSPDVISSASTALSQDIPEIASEALSRGFGSSAPEGLEPDSMASAASALHLLSPRPRPGPELGPQLGLDGGPGDGDRHNTPSLLEAALTQEASTPDSQVWPTAPDITRETCSTLAESPRNGLQEKHKSLAFHRPPYHLLQQRDSQDASAEQSDHDDEVASLASASGGFGTKVPAPRLPAKDWKTKGSPRTSPKLKRKSKKDDGDAAMGSRLTEHQVAEPPEDWPALIWQQQRELAELRHSQEELLQRLCTQLEGLQSTVTGHVERALETRHEQEQRRLERALAEGQQRGGQLQEQLTQQLSQALSSAVAGRLERSIRDEIKKTVPPCVSRSLEPMAGQLSNSVATKLTAVEGSMKENISKLLKSKNLTDAIARAAADTLQGPMQAAYREAFQSVVLPAFEKSCQAMFQQINDSFRLGTQEYLQQLESHMKSRKAREQEAREPVLAQLRGLVSTLQSATEQMAATVAGSVRAEVQHQLHVAVGSLQESILAQVQRIVKGEVSVALKEQQAAVTSSIMQAMRSAAGTPVPSAHLDCQAQQAHILQLLQQGHLNQAFQQALTAADLNLVLYVCETVDPAQVFGQPPCPLSQPVLLSLIQQLASDLGTRTDLKLSYLEEAVMHLDHSDPITRDHMGSVMAQVRQKLFQFLQAEPHNSLGKAARRLSLMLHGLVTPSLP
binds | OGDHL (protein, UniProt Q9ULD0 74-1010) FREASEEAFSGSAQPRPPSVVHESRSAVSSRTKTSKLVEDHLAVQSLIRAYQIRGHHVAQLDPLGILDADLDSFVPSDLITTIDKLAFYDLQEADLDKEFQLPTTTFIGGSENTLSLREIIRRLENTYCQHIGLEFMFINDVEQCQWIRQKFETPGVMQFSSEEKRTLLARLVRSMRFEDFLARKWSSEKRFGLEGCEVMIPALKTIIDKSSEMGIENVILGMPHRGRLNVLANVIRKDLEQIFCQFDPKLEAADEGSGDVKYHLGMYHERINRVTNRNITLSLVANPSHLEAVDPVVQGKTKAEQFYRGDAQGKKVMSILVHGDAAFAGQGVVYETFHLSDLPSYTTNGTVHVVVNNQIGFTTDPRMARSSPYPTDVARVVNAPIFHVNADDPEAVIYVCSVAAEWRNTFNKDVVVDLVCYRRRGHNEMDEPMFTQPLMYKQIHRQVPVLKKYADKLIAEGTVTLQEFEEEIAKYDRICEEAYGRSKDKKILHIKHWLDSPWPGFFNVDGEPKSMTCPATGIPEDMLTHIGSVASSVPLEDFKIHTGLSRILRGRADMTKNRTVDWALAEYMAFGSLLKEGIHVRLSGQDVERGTFSHRHHVLHDQEVDRRTCVPMNHLWPDQAPYTVCNSSLSEYGVLGFELGYAMASPNALVLWEAQFGDFHNTAQCIIDQFISTGQAKWVRHNGIVLLLPHGMEGMGPEHSSARPERFLQMSNDDSDAYPAFTKDFEVSQLYDCNWIVVNCSTPANYFHVLRRQILLPFRKPLIIFTPKSLLRHPEAKSSFDQMVSGTSFQRVIPEDGAAARAPEQVQRLIFCTGKVYYDLVKERSSQDLEEKVAITRLEQISPFPFDLIKQEAEKYPGAELAWCQEEHKNMGYYDYISPRFMTILRRARPIWYVGRDPAAAPATGNRNTHLVSLKKFLDTAFNLQAFEGKTF
binds | DLAT (protein, UniProt P10515 87-647) SLPPHQKVPLPSLSPTMQAGTIARWEKKEGDKINEGDLIAEVETDKATVGFESLEECYMAKILVAEGTRDVPIGAIICITVGKPEDIEAFKNYTLDSSAAPTPQAAPAPTPAATASPPTPSAQAPGSSYPPHMQVLLPALSPTMTMGTVQRWEKKVGEKLSEGDLLAEIETDKATIGFEVQEEGYLAKILVPEGTRDVPLGTPLCIIVEKEADISAFADYRPTEVTDLKPQVPPPTPPPVAAVPPTPQPLAPTPSAPCPATPAGPKGRVFVSPLAKKLAVEKGIDLTQVKGTGPDGRITKKDIDSFVPSKVAPAPAAVVPPTGPGMAPVPTGVFTDIPISNIRRVIAQRLMQSKQTIPHYYLSIDVNMGEVLLVRKELNKILEGRSKISVNDFIIKASALACLKVPEANSSWMDTVIRQNHVVDVSVAVSTPAGLITPIVFNAHIKGVETIANDVVSLATKAREGKLQPHEFQGGTFTISNLGMFGIKNFSAIINPPQACILAIGASEDKLVPADNEKGFDVASMMSVTLSCDHRVVDGAVGAQWLAEFRKYLEKPITMLL
binds | MARS (protein, UniProt P56192 1-900) MRLFVSDGVPGCLPVLAAAGRARGRAEVLISTVGPEDCVVPFLTRPKVPVLQLDSGNYLFSTSAICRYFFLLSGWEQDDLTNQWLEWEATELQPALSAALYYLVVQGKKGEDVLGSVRRALTHIDHSLSRQNCPFLAGETESLADIVLWGALYPLLQDPAYLPEELSALHSWFQTLSTQEPCQRAAETVLKQQGVLALRPYLQKQPQPSPAEGRAVTNEPEEEELATLSEEEIAMAVTAWEKGLESLPPLRPQQNPVLPVAGERNVLITSALPYVNNVPHLGNIIGCVLSADVFARYSRLRQWNTLYLCGTDEYGTATETKALEEGLTPQEICDKYHIIHADIYRWFNISFDIFGRTTTPQQTKITQDIFQQLLKRGFVLQDTVEQLRCEHCARFLADRFVEGVCPFCGYEEARGDQCDKCGKLINAVELKKPQCKVCRSCPVVQSSQHLFLDLPKLEKRLEEWLGRTLPGSDWTPNAQFITRSWLRDGLKPRCITRDLKWGTPVPLEGFEDKVFYVWFDATIGYLSITANYTDQWERWWKNPEQVDLYQFMAKDNVPFHSLVFPCSALGAEDNYTLVSHLIATEYLNYEDGKFSKSRGVGVFGDMAQDTGIPADIWRFYLLYIRPEGQDSAFSWTDLLLKNNSELLNNLGNFINRAGMFVSKFFGGYVPEMVLTPDDQRLLAHVTLELQHYHQLLEKVRIRDALRSILTISRHGNQYIQVNEPWKRIKGSEADRQRAGTVTGLAVNIAALLSVMLQPYMPTVSATIQAQLQLPPPACSILLTNFLCTLPAGHQIGTVSPLFQKLENDQIESLRQRFGGGQAKTSPKPAVVETVTTAKPQQIQALMDEVTKQGNIVRELKAQKADKNEVAAEVAKLLDLKKQLAVAEGKPPEAPKGKKKK
binds | EXOSC10 (protein, UniProt Q01780 1-885) MAPPSTREPRVLSATSATKSDGEMVLPGFPDADSFVKFALGSVVAVTKASGGLPQFGDEYDFYRSFPGFQAFCETQGDRLLQCMSRVMQYHGCRSNIKDRSKVTELEDKFDLLVDANDVILERVGILLDEASGVNKNQQPVLPAGLQVPKTVVSSWNRKAAEYGKKAKSETFRLLHAKNIIRPQLKFREKIDNSNTPFLPKIFIKPNAQKPLPQALSKERRERPQDRPEDLDVPPALADFIHQQRTQQVEQDMFAHPYQYELNHFTPADAVLQKPQPQLYRPIEETPCHFISSLDELVELNEKLLNCQEFAVDLEHHSYRSFLGLTCLMQISTRTEDFIIDTLELRSDMYILNESLTDPAIVKVFHGADSDIEWLQKDFGLYVVNMFDTHQAARLLNLGRHSLDHLLKLYCNVDSNKQYQLADWRIRPLPEEMLSYARDDTHYLLYIYDKMRLEMWERGNGQPVQLQVVWQRSRDICLKKFIKPIFTDESYLELYRKQKKHLNTQQLTAFQLLFAWRDKTARREDESYGYVLPNHMMLKIAEELPKEPQGIIACCNPVPPLVRQQINEMHLLIQQAREMPLLKSEVAAGVKKSGPLPSAERLENVLFGPHDCSHAPPDGYPIIPTSGSVPVQKQASLFPDEKEDNLLGTTCLIATAVITLFNEPSAEDSKKGPLTVAQKKAQNIMESFENPFRMFLPSLGHRAPVSQAAKFDPSTKIYEISNRWKLAQVQVQKDSKEAVKKKAAEQTAAREQAKEACKAAAEQAISVRQQVVLENAAKKRERATSDPRTTEQKQEKKRLKISKKPKDPEPPEKEFTPYDYSQSDFKAFAGNSKSKVSSQFDPNKQTPSGKKCIAAKKIKQSVGNKSMSFPTGKSDRGFRYNWPQR

No constants are given. Whether binding was seen depends on the method and setting. In cells and extracts the contact can be indirect. A yes stands for co-enrichment or nearness to the bait. Other partners may have been found. Tags and fused reporters may be left off the sequences shown.
